Data from publication PMC5316994.
Results are given in words; binding and its absence hold for the method and conditions named. In cells and extracts the contact can be indirect. These calls come from enrichment with a bait or labelling near it, and not all partners need be listed.

Chains of the proteins cited; added tags and fusions are not shown. Lines headed by an entry give the natural chain unless they say otherwise; changes in a name come on top.
UniProt Q8I489: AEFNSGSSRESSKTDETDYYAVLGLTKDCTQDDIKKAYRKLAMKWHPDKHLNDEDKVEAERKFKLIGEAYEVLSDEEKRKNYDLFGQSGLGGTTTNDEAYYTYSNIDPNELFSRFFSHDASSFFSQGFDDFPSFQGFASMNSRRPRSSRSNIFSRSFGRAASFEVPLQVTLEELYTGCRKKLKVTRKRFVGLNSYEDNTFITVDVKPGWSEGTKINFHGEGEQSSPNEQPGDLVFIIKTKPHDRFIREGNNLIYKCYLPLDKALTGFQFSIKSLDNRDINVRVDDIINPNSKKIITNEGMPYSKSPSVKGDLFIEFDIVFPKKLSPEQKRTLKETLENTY
UniProt Q8IM77: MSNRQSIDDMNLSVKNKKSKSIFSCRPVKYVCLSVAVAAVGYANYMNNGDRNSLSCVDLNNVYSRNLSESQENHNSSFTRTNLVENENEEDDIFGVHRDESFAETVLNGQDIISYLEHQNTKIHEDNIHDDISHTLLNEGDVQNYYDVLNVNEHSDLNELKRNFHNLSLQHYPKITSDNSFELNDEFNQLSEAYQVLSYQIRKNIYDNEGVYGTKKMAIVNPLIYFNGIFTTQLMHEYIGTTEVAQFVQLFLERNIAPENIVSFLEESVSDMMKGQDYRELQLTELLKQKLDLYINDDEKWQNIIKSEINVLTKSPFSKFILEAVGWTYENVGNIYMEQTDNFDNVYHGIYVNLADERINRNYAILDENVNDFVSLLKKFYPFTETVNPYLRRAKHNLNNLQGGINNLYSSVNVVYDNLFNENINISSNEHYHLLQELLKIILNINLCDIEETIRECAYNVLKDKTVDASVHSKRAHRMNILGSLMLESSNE
UniProt Q8IM15: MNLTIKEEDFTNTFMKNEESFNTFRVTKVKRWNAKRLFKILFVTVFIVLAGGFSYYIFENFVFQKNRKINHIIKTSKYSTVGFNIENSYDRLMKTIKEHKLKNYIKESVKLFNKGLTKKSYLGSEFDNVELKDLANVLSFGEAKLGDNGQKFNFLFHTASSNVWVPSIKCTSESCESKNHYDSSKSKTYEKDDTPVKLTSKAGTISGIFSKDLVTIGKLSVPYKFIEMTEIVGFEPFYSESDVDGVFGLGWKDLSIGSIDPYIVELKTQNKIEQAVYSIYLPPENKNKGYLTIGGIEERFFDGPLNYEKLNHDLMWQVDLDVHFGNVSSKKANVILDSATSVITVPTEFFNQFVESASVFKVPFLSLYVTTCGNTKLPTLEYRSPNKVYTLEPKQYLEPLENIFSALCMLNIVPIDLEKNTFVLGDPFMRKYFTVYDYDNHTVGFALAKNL
UniProt Q8IAK9: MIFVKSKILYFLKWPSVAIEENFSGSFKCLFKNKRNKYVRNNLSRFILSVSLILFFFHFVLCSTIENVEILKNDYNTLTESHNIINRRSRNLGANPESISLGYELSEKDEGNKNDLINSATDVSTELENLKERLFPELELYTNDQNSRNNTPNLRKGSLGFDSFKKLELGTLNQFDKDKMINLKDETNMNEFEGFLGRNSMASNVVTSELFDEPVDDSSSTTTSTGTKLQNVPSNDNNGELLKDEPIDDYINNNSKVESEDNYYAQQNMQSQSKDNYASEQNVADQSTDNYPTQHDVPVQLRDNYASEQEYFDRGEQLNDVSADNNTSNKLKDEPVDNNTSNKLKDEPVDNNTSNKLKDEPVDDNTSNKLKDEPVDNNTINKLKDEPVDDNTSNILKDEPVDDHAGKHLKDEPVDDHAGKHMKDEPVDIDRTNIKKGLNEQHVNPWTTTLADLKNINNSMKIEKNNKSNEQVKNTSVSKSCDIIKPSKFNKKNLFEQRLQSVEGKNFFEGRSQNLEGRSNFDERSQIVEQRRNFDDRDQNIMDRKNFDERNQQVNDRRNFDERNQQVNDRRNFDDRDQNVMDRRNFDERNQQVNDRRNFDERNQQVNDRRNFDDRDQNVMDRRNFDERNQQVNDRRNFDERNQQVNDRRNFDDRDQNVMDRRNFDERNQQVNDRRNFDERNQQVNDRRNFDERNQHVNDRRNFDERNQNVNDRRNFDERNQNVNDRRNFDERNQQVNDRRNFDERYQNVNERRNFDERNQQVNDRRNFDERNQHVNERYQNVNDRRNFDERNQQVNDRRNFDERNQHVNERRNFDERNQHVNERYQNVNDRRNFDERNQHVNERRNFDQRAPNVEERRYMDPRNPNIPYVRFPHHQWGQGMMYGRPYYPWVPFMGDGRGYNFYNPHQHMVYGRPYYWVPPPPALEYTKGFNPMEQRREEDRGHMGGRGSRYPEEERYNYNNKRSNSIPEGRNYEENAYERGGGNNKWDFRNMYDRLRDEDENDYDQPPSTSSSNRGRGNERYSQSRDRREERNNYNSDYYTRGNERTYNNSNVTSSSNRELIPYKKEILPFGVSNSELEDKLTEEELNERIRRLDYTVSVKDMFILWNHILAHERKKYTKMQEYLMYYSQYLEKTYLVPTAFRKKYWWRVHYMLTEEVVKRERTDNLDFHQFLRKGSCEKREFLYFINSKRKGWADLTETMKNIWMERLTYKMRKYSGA
UniProt Q8IM16: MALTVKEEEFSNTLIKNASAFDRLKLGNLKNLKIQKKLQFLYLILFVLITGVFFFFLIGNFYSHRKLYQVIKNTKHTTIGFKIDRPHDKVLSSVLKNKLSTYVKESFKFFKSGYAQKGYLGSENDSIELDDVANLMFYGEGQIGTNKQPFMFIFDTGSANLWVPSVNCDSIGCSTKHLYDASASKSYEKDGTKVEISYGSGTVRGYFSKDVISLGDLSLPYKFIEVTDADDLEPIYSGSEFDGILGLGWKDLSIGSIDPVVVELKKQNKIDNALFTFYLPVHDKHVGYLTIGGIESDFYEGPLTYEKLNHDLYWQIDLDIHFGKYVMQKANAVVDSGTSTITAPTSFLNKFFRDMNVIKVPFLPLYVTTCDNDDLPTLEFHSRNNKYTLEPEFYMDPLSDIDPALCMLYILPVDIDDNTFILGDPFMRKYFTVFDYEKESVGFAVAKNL

Biological target: PFE55^GFP (Plasmodium falciparum 3D7) (UniProt Q8I489)
Assay: affinity purification with mass spectrometry

| Molecule | binding |
| --- | --- |
| DnaJ protein, putative (PF3D7_1401100) (from UniProt Q8IM77) | binds |
| plasmepsin III (HAP) (from UniProt Q8IM15) (enzyme) | binds |
| PfPHIST_0801 (from UniProt Q8IAK9) | binds |
| plasmepsin IV (PM4) (from UniProt Q8IM16) (enzyme) | binds |
| PfHsp101 (from UniProt Q8IIJ8) | binds |

Biological target: PfHsp70x (Plasmodium falciparum (endogenous in 3D7-derived parasites))
Assay: affinity purification with mass spectrometry

| Molecule | binding |
| --- | --- |
| high molecular weight rhoptry protein 2 (RhopH2) (protein, UniProt C0H571 20-1378) LELNEKVSIKYGAEQGVGSADSNTKLCSDILKYLYMDEYLSEGDKATFEKKCHNVIGNIRNTFSNKNTIKEGNEFLMSILHMKSLYGNNNNNNAGSESDVTLKSLYLSLKGSQNTEGESEVPSDDEINKTIMNFVKFNKYLLDNSNDIKKVHDFLVLTSQSNENLLPNKEKLFEQIVDQIKYFDEYFFASGGKIKVKKGYLKYNFLDIYKQPVCSAYLHLCSRYYESVSIYIRLKKVFNGIPAFLDKNCRKVKGEEFKKLMDMELKHNHIVERFDKYIISDDLYYVNMKVFDLKNVDKIQVSKIDDINNLNIYEHKETMHLSAKNLSRYIDIKKELNDEKAYKQLMSAIRKYVTTLTKADSDITYFVKQLDDEEIERFLIDLNFFLYNGFLRITEDKHLINADDVSPSYINLYRSNNIVALYILKTQYEENKLSEYRAHKFYRRKRVSNITNDMIKKDFTQTNALTNLPNLDNKKTTEYYLKEYENFVENFQPDLHDIMKLQLFFTMAFKDCNVNQNFTETSKKLWFDLLYAYDKFGWFYIHPNEVINSINKTDFVRHVLVSRNFLLKNNDQLTFLETQVAKIVEIINLSLEVDKSPDSLDFSIPMNFFNHKNGYHVMNDDKLKLLTSYEYIDSIANNYFFLSEYKNDVFRTGNNFKLYFNLPNIYSLAYQLFNELAININVITNVPLKKYLKYNASYAYFTLMNMIGKNHDIYSKGSRFVYASYILGLVFFIESHIDIARLKPKDFFFMKQSLPIIDHVYHKDLKTLKKNCTLLTDFMKINKNSQNYSLTHTEEMIKILGLLTVTLWAKEGKKSVYYDDDVSLYRKLMVSCVFNGGETIQEKLANNIEKSCDISQYGIKSKNLKDMIDINLSIHKWNPAEIEKLAYSFVLSCKMQKLMYKPMNVEKLPLEDYYKLSLAPDMVKTYHCYKLGKQAAELLESIILKKKFVRFRVTDAIDVYDFFYIKKVLSSRIKKEYNEFLQDKRAFEKKELETILNNSPFSEEQTMKLINSYECHWFTSYENFRILWMHASSNLGTGTYLKNFFSELWQNIRFLFKSKLKIRDMEYFSGDISQMNLLDYYSPMVHSESHCQEKMQVLFITLRDSKEENRSEIAQKVKSAYYQCKLDYYKNHHSDFIHRIHPNDFLNNKVYVLKQPYYLMSNVPLNNPKKVSRLFVTEGTLEYLLLDKINIPECFGPCTKLHFNKVVIKESKQRIYDMTINNALVPEIQPYNRRKYMTIYINEAYIKNIVSDALTSEEIKRHDIQKGNIKICMGKSTYLTEPILTEEHFNLTHKPVYDFSSVKHNLKVFHMKNEHLVSEDPNDDCFINYPLATINLDISDPYKEISEDLIKNLYILKSS | binds |
| high molecular weight rhoptry protein 3 (RhopH3) (protein, UniProt Q8I395 25-897) KDVFAGFVTKKLKTLLDCNFALYYNFKGNGPDAGSFLDFVDEPEQFYWFVEHFLSVKFRVPKHLKDKNIHNFTPCLNRSWVSEFLKEYEEPFVNPVMKFLDKEQRLFFTYNFGDVEPQGKYTYFPVKEFHKYCILPPLIKTNIKDGESGEFLKYQLNKEEYKVFLSSVGSQMTAIKNLYSTVEDEQRKQLLKVIIENESTNDISVQCPTYNIKLHYTKECANSNNILKCIDEFLRKTCEKKTESKHPSADLCEHLQFLFESLKNPYLDNFKKFMTNSDFTLIKPQSVWNVPIFDIYKPKNYLDSVQNLDTECFKKLNSKNLIFLSFHDDIPNNPYYNVELQEIVKLSTYTYSIFDKLYNFFFVFKKSGAPISPVSVKELSHNITDFSFKEDNSEIQCQNVRKSLDLEVDVETMKGIAAEKLCKIIEKFILTKDDASKPEKSDIHRGFRILCILISTHVEAYNIVRQLLNMESMISLTRYTSLYIHKFFKSVTLLKGNFLYKNNKAIRYSRACSKASLHVPSVLYRRNIYIPETFLSLYLGLSNLVSSNPSSPFFEYAIIEFLVTYYNKGSEKFVLYFISIISVLYINEYYYEQLSCFYPKEFELIKSRMIHPNIVDRILKGIDNLMKSTRYDKMRTMYLDFESSDIFSREKVFTALYNFDSFIKTNEQLKKKNLEEISEIPVQLETSNDGIGYRKQDVLYETDKPQTMDEASYEETVDEDAHHVNEKQHSAHFLDAIAEKDILEEKTKDQDLEIELYKYMGPLKEQSKSTSAASTSDEISGSEGPSTESTSTGNQGEDKTTDNTYKEMEELEEAEGTSNLKKGLEFYKSSLKLDQLDKEKPKKKKSKRKKKRDSSSDRILLEESKTFTSENEL | binds |
